Reference: article PMC6995525, “Structure of the PUB Domain from Ubiquitin Regulatory X Domain Protein 1 (UBXD1) and Its Interaction with the p97 AAA+ ATPase” (Biomolecules, 2019)
No constants are given. Whether binding was seen depends on the method and setting.

Target: UBXD1-PUB (150–264) (UniProt Q9BZV1)
Experiment: NMR 15N relaxation (rotational correlation time from T1/T2); 15N-UBXD1-PUB, 25 °C, 50 mM NaKPi pH 6.5; NMR samples 200–800 µM; averaged τc = 7.9 ns gives MW 13.0 kDa; both purified

B1: UBXD1-PUB (150–264) (domain or fragment, UniProt Q9BZV1 150-264)
chain: STDPVAASIMKIYTFNKDQDRVKLGVDTIAKYLDNIHLHPEEEKYRKIKLQNKVFQERINCLEGTHEFFEAIGFQKVLLPAQDQEDPEEFYVLSETTLAQPQSLERHKEQLLAAE
- binding: no binding
